# Measurements published in the supplement of paper PMC8728848.
# The other results are listed elsewhere or left out.
# B1: AT1G80310(18) (Arabidopsis thaliana), Q0WP36 (protein)
# chain: METTTTPLLPGDRSRCGWLRRRLRLKNPLSSELSGAVGDLGTFIPIVLTLTLVSNLDLSTTLIFTGFYNIATGLLFDIPMPVQPMKSIAAVAVSESPHLTPSQIAAAGASTAATLLLLGATGAMSFLYNIIPLPVVRGVQLSQGLQFAFTAIKYVRFNYDTATLKPSSSPRIWLGLDGLILALAALLFIILSTGSGNDREAEDGDLAETSSNESQSRRRRLRLLSSIPSALIVFALGLVLCFIRDPSIFKDLKFGPSKFHILRISWDDWKIGFLRAAIPQIPLSVLNSVIAVCKLSNDLFDKELSATTVSISVGVMNLIGCWFGAMPVCHGAGGLAGQYRFGARSGLSVIFLGIGKLIVGLVFGNSFVRILSQFPIGILGVLLLFAGIELAMASKDMNSKEDSFIMLVCAAVSMTGSSAALGFGCGVVLYLLLKLRTLDCSSVTLFSRSSDESQVDSEAAPRDV
# What was measured:
# Assay in all cases: glycan array binding signal (z-score within array); higher = stronger binding
# Conditions in all cases: glycan notation: IUPAC condensed, linker removed
# [1] = molecular target: Man(a1-2)Man(a1-3)[Man(a1-2)Man(a1-6)]Man
# Procedure, shortened: (§1)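 From the Consortium for Functional Glycomics database, 3228 arrays were curated, keeping only those whose protein sequence was available. Binding is given as a within-array Z-score averaged across arrays sharing a protein sequence and across linkers. Negative Z-scores can be read as non-binding.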
# [2] = molecular target: Man(a1-2)Man(a1-3)[Man(a1-2)Man(a1-6)]Man(a1-6)[Man(a1-2)Man(a1-2)Man(a1-3)]Man
# Procedure, shortened: as §1
# [3] = molecular target: Man(a1-2)Man(a1-3)[Man(a1-2)Man(a1-6)]Man(a1-6)[Man(a1-2)Man(a1-2)Man(a1-3)]Man(b1-4)GlcNAc(b1-4)GlcNAc
# Procedure, shortened: as §1
# [4] = molecular target: Man(a1-2)Man(a1-3)[Man(a1-6)]Man(a1-6)[Man(a1-2)Man(a1-3)]Man(b1-4)GlcNAc(b1-4)GlcNAc
# Procedure, shortened: as §1
# [5] = molecular target: Man(a1-2)Man(a1-6)[Man(a1-3)]Man(a1-6)[Man(a1-2)Man(a1-2)Man(a1-3)]Man
# Procedure, shortened: as §1
# [6] = molecular target: Man(a1-2)Man(a1-6)[Man(a1-3)]Man(a1-6)[Man(a1-2)Man(a1-2)Man(a1-3)]Man(b1-4)GlcNAc(b1-4)GlcNAc
# Procedure, shortened: as §1
# Man(a1-3)[Man(a1-6)]Man = molecular target: Man(a1-3)[Man(a1-6)]Man
# Procedure, shortened: as §1
# [7] = molecular target: Man(a1-3)[Man(a1-6)]Man(a1-6)[Man(a1-2)Man(a1-3)]Man(b1-4)GlcNAc(b1-4)GlcNAc
# Procedure, shortened: as §1
# [8] = molecular target: Man(a1-3)[Man(a1-6)]Man(a1-6)[Man(a1-3)]Man
# Procedure, shortened: as §1
# [9] = molecular target: Man(a1-3)[Man(a1-6)]Man(a1-6)[Man(a1-3)]Man(b1-4)GlcNAc(b1-4)GlcNAc
# Procedure, shortened: as §1
# [10] = molecular target: Man(a1-3)[Man(a1-6)]Man(b1-4)GlcNAc(b1-4)GlcNAc
# Procedure, shortened: as §1
# [11] = molecular target: Man(a1-3)[Man(a1-6)]Man(b1-4)GlcNAc(b1-4)[Fuc(a1-6)]GlcNAc
# Procedure, shortened: as §1
# Man(a1-6)Man = molecular target: Man(a1-6)Man
# Procedure, shortened: as §1
# Man(b1-4)GlcNAc = molecular target: Man(b1-4)GlcNAc
# Procedure, shortened: as §1
# MurNAc(b1-4)GlcNAc = molecular target: MurNAc(b1-4)GlcNAc
# Procedure, shortened: as §1
# Neu5Ac(a2-3)Gal = molecular target: Neu5Ac(a2-3)Gal
# Procedure, shortened: as §1
# [12] = molecular target: Neu5Ac(a2-3)Gal(b1-3)GalNAc
# Procedure, shortened: as §1
# [13] = molecular target: Neu5Ac(a2-3)Gal(b1-3)GalNAc(b1-3)Gal(a1-4)Gal(b1-4)Glc
# Procedure, shortened: as §1
# [14] = molecular target: Neu5Ac(a2-3)Gal(b1-3)GalNAc(b1-4)[Neu5Ac(a2-3)]Gal(b1-4)Glc
# Procedure, shortened: as §1
# [15] = molecular target: Neu5Ac(a2-3)Gal(b1-3)GalNAc(b1-4)[Neu5Ac(a2-8)Neu5Ac(a2-3)]Gal(b1-4)Glc
# Procedure, shortened: as §1
# [16] = molecular target: Neu5Ac(a2-3)Gal(b1-3)GalNAc6S
# Procedure, shortened: as §1
# [17] = molecular target: Neu5Ac(a2-3)Gal(b1-3)GlcNAc
# Procedure, shortened: as §1
# [18] = molecular target: Neu5Ac(a2-3)Gal(b1-3)GlcNAc(b1-2)Man
# Procedure, shortened: as §1
# [19] = molecular target: Neu5Ac(a2-3)Gal(b1-3)GlcNAc(b1-2)Man(a1-3)[GlcNAc(b1-4)][Neu5Ac(a2-3)Gal(b1-3)GlcNAc(b1-2)Man(a1-6)]Man(b1-4)GlcNAc(b1-4)GlcNAc
# Procedure, shortened: as §1
# [20] = molecular target: Neu5Ac(a2-3)Gal(b1-3)GlcNAc(b1-2)Man(a1-3)[Neu5Ac(a2-3)Gal(b1-3)GlcNAc(b1-2)Man(a1-6)]Man(b1-4)GlcNAc(b1-4)GlcNAc
# Procedure, shortened: as §1
# [21] = molecular target: Neu5Ac(a2-3)Gal(b1-3)GlcNAc(b1-3)Gal(b1-3)GlcNAc
# Procedure, shortened: as §1
# [22] = molecular target: Neu5Ac(a2-3)Gal(b1-3)GlcNAc(b1-3)Gal(b1-4)GlcNAc
# Procedure, shortened: as §1
# [23] = molecular target: Neu5Ac(a2-3)Gal(b1-3)GlcNAc(b1-3)GalNAc
# Procedure, shortened: as §1
# [24] = molecular target: Neu5Ac(a2-3)Gal(b1-3)GlcNAc(b1-4)Gal(b1-4)Glc
# Procedure, shortened: as §1
# [25] = molecular target: Neu5Ac(a2-3)Gal(b1-3)GlcNAc(b1-6)GalNAc
# Procedure, shortened: as §1
# [26] = molecular target: Neu5Ac(a2-3)Gal(b1-3)GlcNAc6S
# Procedure, shortened: as §1
# [27] = molecular target: Neu5Ac(a2-3)Gal(b1-3)[Fuc(a1-4)]GlcNAc
# Procedure, shortened: as §1
# [28] = molecular target: Neu5Ac(a2-3)Gal(b1-3)[Fuc(a1-4)]GlcNAc(b1-3)Gal(b1-3)[Fuc(a1-4)]GlcNAc
# Procedure, shortened: as §1
# [29] = molecular target: Neu5Ac(a2-3)Gal(b1-3)[Fuc(a1-4)]GlcNAc(b1-3)Gal(b1-4)[Fuc(a1-3)]GlcNAc
# Procedure, shortened: as §1
# [30] = molecular target: Neu5Ac(a2-3)Gal(b1-3)[GlcNAc(b1-6)]GalNAc
# Procedure, shortened: as §1
# [31] = molecular target: Neu5Ac(a2-3)Gal(b1-3)[Neu5Ac(a2-6)]GalNAc
# Procedure, shortened: as §1
# [32] = molecular target: Neu5Ac(a2-3)Gal(b1-3)[Neu5Ac(a2-6)]GlcNAc(b1-3)[Fuc(a1-3)[Gal(b1-4)]GlcNAc(b1-6)]Gal(b1-4)Glc
# Procedure, shortened: as §1
# [33] = molecular target: Neu5Ac(a2-3)Gal(b1-3)]Neu5Ac(a2-3)Gal(b1-4)]GlcNAc
# Procedure, shortened: as §1
# Neu5Ac(a2-3)Gal(b1-4)Glc = molecular target: Neu5Ac(a2-3)Gal(b1-4)Glc
# Procedure, shortened: as §1
# [34] = molecular target: Neu5Ac(a2-3)Gal(b1-4)GlcNAc
# Procedure, shortened: as §1
# [35] = molecular target: Neu5Ac(a2-3)Gal(b1-4)GlcNAc(b1-2)Man
# Procedure, shortened: as §1
# [36] = molecular target: Neu5Ac(a2-3)Gal(b1-4)GlcNAc(b1-2)Man(a1-3)[GlcNAc(b1-4)][Neu5Ac(a2-3)Gal(b1-4)GlcNAc(b1-2)Man(a1-6)]Man(b1-4)GlcNAc(b1-4)GlcNAc
# Procedure, shortened: as §1
# [37] = molecular target: Neu5Ac(a2-3)Gal(b1-4)GlcNAc(b1-2)Man(a1-3)[Neu5Ac(a2-3)Gal(b1-4)GlcNAc(b1-2)Man(a1-6)]Man(b1-4)GlcNAc(b1-4)GlcNAc
# Procedure, shortened: as §1
# [38] = molecular target: Neu5Ac(a2-3)Gal(b1-4)GlcNAc(b1-2)Man(a1-3)[Neu5Ac(a2-3)Gal(b1-4)GlcNAc(b1-2)Man(a1-6)]Man(b1-4)GlcNAc(b1-4)[Fuc(a1-6)]GlcNAc
# Procedure, shortened: as §1
# [39] = molecular target: Neu5Ac(a2-3)Gal(b1-4)GlcNAc(b1-2)Man(a1-3)[Neu5Ac(a2-6)Gal(b1-4)GlcNAc(b1-2)Man(a1-6)]Man(b1-4)GlcNAc(b1-4)GlcNAc
# Procedure, shortened: as §1
binder,measurement,setting,value
B1,glycan array binding signal (z-score),[1],-0.796
same,glycan array binding signal (z-score),[2],0.822
same,glycan array binding signal (z-score),[3],0.506
same,glycan array binding signal (z-score),[4],-0.023
same,glycan array binding signal (z-score),[5],-0.243
same,glycan array binding signal (z-score),[6],0.024
same,glycan array binding signal (z-score),Man(a1-3)[Man(a1-6)]Man,-0.856
same,glycan array binding signal (z-score),[7],-0.585
same,glycan array binding signal (z-score),[8],-0.763
same,glycan array binding signal (z-score),[9],-0.217
same,glycan array binding signal (z-score),[10],-0.373
same,glycan array binding signal (z-score),[11],-0.517
same,glycan array binding signal (z-score),Man(a1-6)Man,0.072
same,glycan array binding signal (z-score),Man(b1-4)GlcNAc,-0.679
same,glycan array binding signal (z-score),MurNAc(b1-4)GlcNAc,-0.796
same,glycan array binding signal (z-score),Neu5Ac(a2-3)Gal,-0.584
same,glycan array binding signal (z-score),[12],0.654
same,glycan array binding signal (z-score),[13],0.8
same,glycan array binding signal (z-score),[14],-0.383
same,glycan array binding signal (z-score),[15],4.16
same,glycan array binding signal (z-score),[16],-0.477
same,glycan array binding signal (z-score),[17],-0.775
same,glycan array binding signal (z-score),[18],-0.911
same,glycan array binding signal (z-score),[19],0.81
same,glycan array binding signal (z-score),[20],-0.7
same,glycan array binding signal (z-score),[21],-0.233
same,glycan array binding signal (z-score),[22],-1.01
same,glycan array binding signal (z-score),[23],0.422
same,glycan array binding signal (z-score),[24],-0.825
same,glycan array binding signal (z-score),[25],-0.907
same,glycan array binding signal (z-score),[26],-0.894
same,glycan array binding signal (z-score),[27],-0.423
same,glycan array binding signal (z-score),[28],1.52
same,glycan array binding signal (z-score),[29],-0.599
same,glycan array binding signal (z-score),[30],-1.06
same,glycan array binding signal (z-score),[31],-0.455
same,glycan array binding signal (z-score),[32],-0.787
same,glycan array binding signal (z-score),[33],-0.819
same,glycan array binding signal (z-score),Neu5Ac(a2-3)Gal(b1-4)Glc,-0.298
same,glycan array binding signal (z-score),[34],-0.649
same,glycan array binding signal (z-score),[35],0.054
same,glycan array binding signal (z-score),[36],-1.21
same,glycan array binding signal (z-score),[37],-0.801
same,glycan array binding signal (z-score),[38],-0.895
same,glycan array binding signal (z-score),[39],-0.856

# Quoted from the results shown for reference:
binder,measurement,setting,value
B1,glycan array binding signal (z-score),MurNAc(b1-4)GlcNAc,-0.796
same,glycan array binding signal (z-score),Neu5Ac(a2-3)Gal,-0.584
